The values below come from US20170015748A1 (NATIONAL RESEARCH COUNCIL OF CANADA, published 2017).

For the assay, the target named is Insulin receptor. Put plainly: SPR.

Results are given in words; binding and its absence hold for the method and conditions named.

B1: IGF1R-5 VHH (VHH)
VHH: QVKLEESGGGLVQAGGSLRLSCAASGRTIDNYAMAWSRQAPGKDREFVATIDWGDGGARYANSVKGRFTISRDNAKGTMYLQMNNLEPEDTAVYSCAMARQSRVNLDVARYDYWGQGTQVTVSS
notes: Llama VHH expressed in E. coli TG1 from vector pSJF2H and purified by IMAC; Monomeric by SEC; also called anti-IGF1R VHH IGF1R-5; wild-type IGF1R-5
For the molecule B1, the binding result is “no binding”.
